Consider one substance from article PMC9888389.

Amino acid sequences for entries named in this document (tags omitted). A change or cut given only in a name is not applied to a line headed by its entry.
UniProt Q9D906: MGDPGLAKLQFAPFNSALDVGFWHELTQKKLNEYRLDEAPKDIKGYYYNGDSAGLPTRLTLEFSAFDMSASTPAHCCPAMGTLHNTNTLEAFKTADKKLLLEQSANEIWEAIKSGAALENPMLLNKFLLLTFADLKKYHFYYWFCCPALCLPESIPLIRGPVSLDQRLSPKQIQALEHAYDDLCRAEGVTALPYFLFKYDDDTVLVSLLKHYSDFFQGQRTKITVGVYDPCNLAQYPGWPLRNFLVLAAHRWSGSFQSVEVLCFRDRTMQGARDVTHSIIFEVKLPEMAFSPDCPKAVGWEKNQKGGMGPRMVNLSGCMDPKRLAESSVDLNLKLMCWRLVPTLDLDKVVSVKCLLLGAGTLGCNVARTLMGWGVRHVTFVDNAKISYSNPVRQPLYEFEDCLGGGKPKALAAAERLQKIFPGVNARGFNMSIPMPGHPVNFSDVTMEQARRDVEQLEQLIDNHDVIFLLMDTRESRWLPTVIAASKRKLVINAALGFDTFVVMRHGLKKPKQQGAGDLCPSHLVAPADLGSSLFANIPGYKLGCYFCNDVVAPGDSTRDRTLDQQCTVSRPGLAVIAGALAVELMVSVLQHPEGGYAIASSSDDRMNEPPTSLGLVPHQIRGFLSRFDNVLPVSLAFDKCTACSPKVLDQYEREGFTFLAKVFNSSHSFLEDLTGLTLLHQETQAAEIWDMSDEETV

The target of the test is T1, Trx1 trapping mutant (Trx1 C35S) coexpressed with the Atg7 mutants (human) (UniProt P10599).
T1 sequence: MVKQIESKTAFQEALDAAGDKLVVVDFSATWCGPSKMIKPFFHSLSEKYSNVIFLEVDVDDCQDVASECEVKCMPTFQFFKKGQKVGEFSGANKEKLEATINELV
Description: co-IP; HEK293 cells with the indicated plasmids for 48 h (legend; the text says cardiomyocytes); Atg7 WT or mutants coexpressed with the Trx1 trapping mutant.

These are yes or no findings as the source states them, for the method shown. In cells and extracts the contact can be indirect. A result given as binding can be weak or reduced; the word gives no strength.

Take “WT Atg7 coexpressed with the Trx1 trapping mutant (from UniProt Q9D906) (enzyme)”: the binding result is reported as “binds”.
